Record: PubChem BioAssay AID1224829 (NIAID, 2016)

- Screen: 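Follow-up of TLR4-NF-kappaB regulators using six separate siRNAs for each gene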 (follow-up of hits)
- System: mouse RAW264.7 G9 macrophage reporter cells
- Reagents: single siRNA against mouse genes, 100 nM
- Duration: 2 days of siRNA knock-down, then 40 min of LPS before fixing
- Challenge: LPS (Salmonella minnesota R595) at 10 ng/ml
- Read-out: 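High-content images after 40 min LPS exposure; GFP-p65 nucleus to surrounding ring signal ratio, normalised to plate median and non-targeting control wells, expressed as z-score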
- Reading the numbers: p65 translocation z-score: higher = more nuclear NF-kappaB p65 after LPS
- Call rule: 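Active means the replicate-mean z-score lies beyond plus or minus 2, in either direction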
- Meaning of the calls: active = changed p65 translocation (either direction); inactive = no clear change
Here is one part, drawn at random, of about 3,800 reagents tested. 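Calls cover raised and lowered translocation; gene median uses one vendor's three siRNAs; qiagen siRNAs acted more weakly than ambion siRNAs.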 Entries without a mark were called inactive. Not all columns of the deposit are shown.

With Pop7 [SID315486771], siRNA vendor or control pool ambion single siRNA, the entry reads p65 translocation z-score, replicate mean -3.04 (active).
For Pop7 [SID315486772], siRNA vendor or control pool ambion single siRNA, the entry reads p65 translocation z-score, replicate mean -1.88.
Pop7 [SID315486773], siRNA vendor or control pool ambion single siRNA scored p65 translocation z-score, replicate mean -4.45 (active).
For Pop7 [SID315486774], siRNA vendor or control pool qiagen single siRNA the deposit lists p65 translocation z-score, replicate mean 3.54 (active).
For Pop7 [SID315486775], siRNA vendor or control pool qiagen single siRNA, the values are p65 translocation z-score, replicate mean -0.998.
With Pop7 [SID315486776], siRNA vendor or control pool qiagen single siRNA, the values are p65 translocation z-score, replicate mean 0.032.
With Actl7a [SID315483654], siRNA vendor or control pool ambion single siRNA the deposit lists p65 translocation z-score, replicate mean -2.74 (active).
Actl7a [SID315483655], siRNA vendor or control pool ambion single siRNA showed p65 translocation z-score, replicate mean -1.18.
Actl7a [SID315483656], siRNA vendor or control pool ambion single siRNA showed p65 translocation z-score, replicate mean -5.11 (active).
Actl7a [SID315483657], siRNA vendor or control pool qiagen single siRNA showed p65 translocation z-score, replicate mean 1.2.
Actl7a [SID315483658], siRNA vendor or control pool qiagen single siRNA scored p65 translocation z-score, replicate mean -2.95 (active).
Actl7a [SID315483659], siRNA vendor or control pool qiagen single siRNA showed p65 translocation z-score, replicate mean 1.75.

Copied from the list.
Result of Actl7a [SID315483659], siRNA vendor or control pool qiagen single siRNA under “p65 translocation z-score, replicate mean”: 1.75
Actl7a [SID315483656], siRNA vendor or control pool ambion single siRNA, p65 translocation z-score, replicate mean = -5.11 (active)
